According to paper PMC5897330:
No constants are given. Whether binding was seen depends on the method and setting. Binding seen in cells or lysates may run through a third protein. Some binding calls cover weakened binding; strength is not graded here.

Amino acid sequences for entries named in this document (tags omitted).
UniProt P04792: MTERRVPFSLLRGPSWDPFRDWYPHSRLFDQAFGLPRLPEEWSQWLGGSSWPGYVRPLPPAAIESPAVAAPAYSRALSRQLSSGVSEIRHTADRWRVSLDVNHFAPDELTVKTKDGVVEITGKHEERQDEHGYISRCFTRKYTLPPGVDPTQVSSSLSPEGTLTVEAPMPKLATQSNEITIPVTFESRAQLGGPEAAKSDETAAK
UniProt P42229: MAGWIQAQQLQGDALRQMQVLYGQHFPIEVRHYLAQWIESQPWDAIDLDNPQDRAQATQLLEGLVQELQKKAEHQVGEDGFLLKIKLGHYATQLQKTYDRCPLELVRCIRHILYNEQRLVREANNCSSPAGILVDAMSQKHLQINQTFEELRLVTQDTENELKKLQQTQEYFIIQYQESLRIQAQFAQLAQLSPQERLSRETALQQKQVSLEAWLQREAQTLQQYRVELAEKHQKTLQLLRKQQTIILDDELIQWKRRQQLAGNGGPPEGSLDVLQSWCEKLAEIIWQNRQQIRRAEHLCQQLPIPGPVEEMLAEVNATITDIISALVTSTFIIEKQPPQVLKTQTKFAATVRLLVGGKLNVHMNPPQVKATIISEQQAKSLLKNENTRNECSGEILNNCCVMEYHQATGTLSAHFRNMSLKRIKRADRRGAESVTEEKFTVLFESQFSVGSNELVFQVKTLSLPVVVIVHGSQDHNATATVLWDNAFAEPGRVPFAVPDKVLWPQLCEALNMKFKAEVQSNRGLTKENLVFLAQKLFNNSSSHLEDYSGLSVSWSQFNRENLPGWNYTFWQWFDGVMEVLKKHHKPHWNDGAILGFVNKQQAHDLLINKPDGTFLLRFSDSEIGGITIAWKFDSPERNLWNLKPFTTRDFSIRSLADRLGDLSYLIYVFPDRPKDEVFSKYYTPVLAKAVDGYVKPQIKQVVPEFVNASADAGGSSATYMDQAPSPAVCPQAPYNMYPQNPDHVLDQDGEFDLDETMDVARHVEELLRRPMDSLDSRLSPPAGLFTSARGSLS

Molecular target: HA-tagged HSP27 (UniProt P04792)
Assay: co-IP; HEK293T transfected with HA-tagged HSP27 and Myc-tagged STAT5a or JAK2V617F, 24 h; IP 3 h with anti-HA, anti-Myc or anti-STAT5 or mouse IgG on Protein G beads; blots for STAT5, JAK2, HSP27

Substance: Myc-tagged STAT5a (from UniProt P42229 1-794)
- binding: binds
